# From patent US10376520B2, “Methods for the treatment of cardiovascular disorders” (Galapagos NV, priority 2015, dated 2019)
# This continues a long series; more values of the same kind are listed elsewhere.
# Legend:
# RA patients [1] = assay: Atherogenic index, Study 1 (RA patients, add-on to MTX); type: in vivo, human
# Experimental: As used herein, the term ‘atherogenic index’ refers to
# (§1) Double-blind, placebo-controlled add on study in subjects with moderately to severely active RA who have an inadequate response to methotrexate (MTX) (oral or parenteral).
# (§2) Compound 1 (dosed as a [Compound 1:HCl:3H2O]) is dosed for twelve weeks once daily (q.d.) (50 mg, 100 mg or 200 mg) or twice daily (b.i.d.) (25 mg, 50 mg or 100 mg); or placebo.
# (§3) At Week 12, the subjects on placebo who have not achieved 20% improvement in swollen joint count (SJC66) and tender joint count (TJC68) are re-randomized automatically to receive Compound 1 (dosed as a [Compound 1:HCl:3H2O]) either at 100 mg q.d. or 50 mg b.i.d. doses in a blinded fashion; subjects on 50 mg q.d. who have not achieved 20% improvement in SJC66 and TJC68 will be assigned to 100 mg q.d. and subjects on 25 mg b.i.d. that have not achieved a 20% improvement in SJC66 and TJC68 will be assigned to 50 mg b.i.d. Subjects who switch treatment at week 12 are handled as if they discontinued at week 12 for the purpose of statistical analysis, whereas subjects in the other groups will maintain their randomized treatment until Week 24.
# The atherogenic index has been identified to be a good predictor of cardiovascular disorders risks and is calculated as follows: […]
# RA patients [2] = assay: LDL determination, Study 1 (RA patients, add-on to MTX); type: in vivo, human; conditions: Study 1 24 weeks results
# Experimental: as §1
# 595 subjects randomized to one of 6 dose regimens of Compound 1 (dosed as a [Compound 1:HCl:3H2O]) (3 dose levels administered either once or twice daily) or placebo on top of each subject's stable dose of MTX.
# as §2, §3
# The determination of [LDL]-cholesterol is made using an automated method taking advantage of the selective micellary solubilization of [LDL]-cholesterol by a nonionic detergent and the interaction of a sugar compound and lipoproteins (VLDL and chylomicrons).
# When a detergent is included in the enzymatic method for cholesterol determination (cholesterol esterase, cholesterol oxidase coupling reaction), the relative reactivities of cholesterol in the lipoprotein fractions increase in this order: [HDL]<chylomicrons <VLDL <[LDL]. In the presence of Mg^2+, a sugar compound markedly reduces the enzymatic reaction of the cholesterol measurement in VLDL and chylomicrons. The combination of a sugar compound with detergent enables the selective determination of [LDL]-cholesterol in serum. (Friedewald et al., 1972; Rifai et al., 1992)
# Homogeneous enzymatic colorimetric assay.
# In the presence of peroxidase, the hydrogen peroxide generated reacts with 4-aminoantipyrine and Sodium N-(2-hydroxy-3-sulfopropyl)-3,5-dimethoxyaniline (HSDA) to form a purple-blue dye.
# The color intensity of this dye is directly proportional to the cholesterol concentration and is measured photometrically.
# Human serum and plasma samples [LDL] determination was done on a Roche/Hitachi Cobas c 701/702 system which automatically calculate the analyte concentration of each sample. Samples containing precipitates are centrifuged before performing the assay.
# [3] = continued 50 mg b.i.d., week 12
# [4] = continued 50 mg b.i.d., week 16
# [5] = continued 50 mg b.i.d., week 20
# [6] = continued 50 mg b.i.d., week 24
# [7] = continued 100 mg b.i.d., week 1
# [8] = continued 100 mg b.i.d., week 2
# [9] = continued 100 mg b.i.d., week 4
# [10] = continued 100 mg b.i.d., week 8
# [11] = continued 100 mg b.i.d., week 12
# [12] = continued 100 mg b.i.d., week 16
# [13] = continued 100 mg b.i.d., week 20
structure (smiles),measurement,setting,value
"O=C(Nc1nc2cccc(-c3ccc(CN4CCS(=O)(=O)CC4)cc3)n2n1)C1CC1 [Compound 1, cyclopropanecarboxylic acid {5-[4-(1,1-dioxo-thiomorpholin-4-ylmethyl)-phenyl]-[1,2,4]triazolo[1,5-a]pyridin-2yl}-amide]",Atherogenic index Median CFB - 24 weeks results,"RA patients [1]; Placebo switched to 100 mg q.d. at week 12, week 16",0.00 mmol/L
same,Atherogenic index Median CFB - 24 weeks results,"RA patients [1]; Placebo switched to 100 mg q.d. at week 12, week 20",-0.10 mmol/L
same,Atherogenic index Median CFB - 24 weeks results,"RA patients [1]; Placebo switched to 100 mg q.d. at week 12, week 24",-0.20 mmol/L
same,Atherogenic index Median CFB - 24 weeks results,"RA patients [1]; increased from 25 mg b.i.d. to 50 mg b.i.d at 12 weeks, week 16",-0.30 mmol/L
same,Atherogenic index Median CFB - 24 weeks results,"RA patients [1]; increased from 25 mg b.i.d. to 50 mg b.i.d at 12 weeks, week 20",-0.30 mmol/L
same,[LDL] Mean CFB,"RA patients [2]; continued 25 mg b.i.d, week 1",0.06 mmol/L
same,[LDL] Median CFB,"RA patients [2]; continued 25 mg b.i.d, week 1",0.08 mmol/L
same,[LDL] Mean CFB,"RA patients [2]; continued 25 mg b.i.d, week 2",0.06 mmol/L
same,[LDL] Median CFB,"RA patients [2]; continued 25 mg b.i.d, week 2",0.09 mmol/L
same,[LDL] Mean CFB,"RA patients [2]; continued 25 mg b.i.d, week 4",0.05 mmol/L
same,[LDL] Median CFB,"RA patients [2]; continued 25 mg b.i.d, week 4",0.03 mmol/L
same,[LDL] Mean CFB,"RA patients [2]; continued 25 mg b.i.d, week 8",0.05 mmol/L
same,[LDL] Median CFB,"RA patients [2]; continued 25 mg b.i.d, week 8",0.06 mmol/L
same,[LDL] Mean CFB,"RA patients [2]; continued 25 mg b.i.d, week 12",0.14 mmol/L
same,[LDL] Median CFB,"RA patients [2]; continued 25 mg b.i.d, week 12",0.13 mmol/L
same,[LDL] Mean CFB,"RA patients [2]; continued 25 mg b.i.d, week 16",0.10 mmol/L
same,[LDL] Median CFB,"RA patients [2]; continued 25 mg b.i.d, week 16",0.06 mmol/L
same,[LDL] Mean CFB,"RA patients [2]; continued 25 mg b.i.d, week 20",0.14 mmol/L
same,[LDL] Median CFB,"RA patients [2]; continued 25 mg b.i.d, week 20",0.14 mmol/L
same,[LDL] Mean CFB,"RA patients [2]; continued 25 mg b.i.d, week 24",0.14 mmol/L
same,[LDL] Median CFB,"RA patients [2]; continued 25 mg b.i.d, week 24",0.13 mmol/L
same,[LDL] Mean CFB,"RA patients [2]; continued 50 mg b.i.d., week 1",0.10 mmol/L
same,[LDL] Median CFB,"RA patients [2]; continued 50 mg b.i.d., week 1",0.17 mmol/L
same,[LDL] Mean CFB,"RA patients [2]; continued 50 mg b.i.d., week 2",0.04 mmol/L
same,[LDL] Median CFB,"RA patients [2]; continued 50 mg b.i.d., week 2",0.10 mmol/L
same,[LDL] Mean CFB,"RA patients [2]; continued 50 mg b.i.d., week 4",0.14 mmol/L
same,[LDL] Median CFB,"RA patients [2]; continued 50 mg b.i.d., week 4",0.04 mmol/L
same,[LDL] Mean CFB,"RA patients [2]; continued 50 mg b.i.d., week 8",0.07 mmol/L
same,[LDL] Median CFB,"RA patients [2]; continued 50 mg b.i.d., week 8",0.10 mmol/L
same,[LDL] Mean CFB,RA patients [2]; [3],0.05 mmol/L
same,[LDL] Median CFB,RA patients [2]; [3],-0.02 mmol/L
same,[LDL] Mean CFB,RA patients [2]; [4],0.10 mmol/L
same,[LDL] Median CFB,RA patients [2]; [4],0.09 mmol/L
same,[LDL] Mean CFB,RA patients [2]; [5],0.14 mmol/L
same,[LDL] Median CFB,RA patients [2]; [5],0.17 mmol/L
same,[LDL] Mean CFB,RA patients [2]; [6],0.19 mmol/L
same,[LDL] Median CFB,RA patients [2]; [6],0.21 mmol/L
same,[LDL] Mean CFB,RA patients [2]; [7],0.20 mmol/L
same,[LDL] Median CFB,RA patients [2]; [7],0.18 mmol/L
same,[LDL] Mean CFB,RA patients [2]; [8],0.15 mmol/L
same,[LDL] Median CFB,RA patients [2]; [8],0.08 mmol/L
same,[LDL] Mean CFB,RA patients [2]; [9],0.17 mmol/L
same,[LDL] Median CFB,RA patients [2]; [9],0.12 mmol/L
same,[LDL] Mean CFB,RA patients [2]; [10],0.31 mmol/L
same,[LDL] Median CFB,RA patients [2]; [10],0.22 mmol/L
same,[LDL] Mean CFB,RA patients [2]; [11],0.27 mmol/L
same,[LDL] Median CFB,RA patients [2]; [11],0.26 mmol/L
same,[LDL] Mean CFB,RA patients [2]; [12],0.21 mmol/L
same,[LDL] Median CFB,RA patients [2]; [12],0.21 mmol/L
same,[LDL] Mean CFB,RA patients [2]; [13],0.16 mmol/L
same,[LDL] Median CFB,RA patients [2]; [13],0.11 mmol/L
same,[LDL] Mean CFB,"RA patients [2]; continued 100 mg b.i.d., week 24",0.30 mmol/L
